Laboratory results from paper PMC5440411.
No constants are given. Whether binding was seen depends on the method and setting. Binding seen in cells or lysates may run through a third protein.

The chains behind the UniProt entries cited, without tags or fusion partners. Residues count along the entry.
UniProt P02545, residues 1-646: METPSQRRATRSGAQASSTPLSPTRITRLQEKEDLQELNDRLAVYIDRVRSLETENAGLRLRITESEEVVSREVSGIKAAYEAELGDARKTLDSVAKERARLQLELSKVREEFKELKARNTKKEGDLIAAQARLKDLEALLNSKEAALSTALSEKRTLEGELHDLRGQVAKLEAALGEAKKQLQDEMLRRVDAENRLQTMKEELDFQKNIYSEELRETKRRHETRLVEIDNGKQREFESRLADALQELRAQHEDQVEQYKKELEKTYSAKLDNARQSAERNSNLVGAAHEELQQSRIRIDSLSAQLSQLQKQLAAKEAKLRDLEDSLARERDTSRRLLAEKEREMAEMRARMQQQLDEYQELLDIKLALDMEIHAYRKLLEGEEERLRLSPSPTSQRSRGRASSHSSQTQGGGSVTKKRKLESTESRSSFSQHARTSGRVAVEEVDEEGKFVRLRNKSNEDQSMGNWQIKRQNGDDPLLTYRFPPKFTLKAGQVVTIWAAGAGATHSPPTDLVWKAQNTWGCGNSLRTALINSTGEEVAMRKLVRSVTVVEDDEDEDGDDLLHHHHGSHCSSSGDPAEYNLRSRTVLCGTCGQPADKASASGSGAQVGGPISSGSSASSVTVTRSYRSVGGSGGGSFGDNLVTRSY
UniProt P06241: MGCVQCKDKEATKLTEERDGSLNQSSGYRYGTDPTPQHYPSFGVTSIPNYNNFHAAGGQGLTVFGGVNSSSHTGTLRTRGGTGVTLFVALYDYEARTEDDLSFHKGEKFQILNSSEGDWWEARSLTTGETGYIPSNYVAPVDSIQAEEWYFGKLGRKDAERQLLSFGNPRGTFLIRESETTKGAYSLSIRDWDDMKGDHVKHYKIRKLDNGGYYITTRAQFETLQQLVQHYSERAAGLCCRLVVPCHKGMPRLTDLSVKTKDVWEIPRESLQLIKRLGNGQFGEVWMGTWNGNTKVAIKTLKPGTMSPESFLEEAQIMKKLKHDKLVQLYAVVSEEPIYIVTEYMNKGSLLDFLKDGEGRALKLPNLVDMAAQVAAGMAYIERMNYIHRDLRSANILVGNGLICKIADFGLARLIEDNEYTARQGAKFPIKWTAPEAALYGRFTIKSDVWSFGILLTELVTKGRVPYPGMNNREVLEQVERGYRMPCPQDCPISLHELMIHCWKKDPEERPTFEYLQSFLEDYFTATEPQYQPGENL

Molecular target: A-type lamins (human (endogenous in HEK 293T)) (UniProt P02545)
Test: co-IP; IP with anti-lamin A/C antibody (ab-108922) and protein A/G agarose from HEK 293T lysates (50 mM HEPES pH 7.4, 150 mM NaCl, 1 mM MgCl2, 1% Triton X-100, 4 °C); blots with anti-actin, anti-Fyn and anti-lamin A/C; cells transfected 24 h before with miR-125a-3p mimic, anti-miR or scramble-miR, Fyn vector, DN-Fyn vector or empty vector

binding: no binding
Substance: Fyn (from UniProt P06241 1-537) (enzyme)
